Laboratory results as given in patent US8530516B2, “Promoting cycling of ApoE4 isoform” (Board of Regents, The University of Texas System, priority 2009, dated 2013).
At least one compound was matched to its structure with a doubt left. Some results were stated once for a whole list of compounds, not compound by compound.

The chains behind the UniProt entries cited, without tags or fusion partners.
UniProt P19634, whole entry, species assumed: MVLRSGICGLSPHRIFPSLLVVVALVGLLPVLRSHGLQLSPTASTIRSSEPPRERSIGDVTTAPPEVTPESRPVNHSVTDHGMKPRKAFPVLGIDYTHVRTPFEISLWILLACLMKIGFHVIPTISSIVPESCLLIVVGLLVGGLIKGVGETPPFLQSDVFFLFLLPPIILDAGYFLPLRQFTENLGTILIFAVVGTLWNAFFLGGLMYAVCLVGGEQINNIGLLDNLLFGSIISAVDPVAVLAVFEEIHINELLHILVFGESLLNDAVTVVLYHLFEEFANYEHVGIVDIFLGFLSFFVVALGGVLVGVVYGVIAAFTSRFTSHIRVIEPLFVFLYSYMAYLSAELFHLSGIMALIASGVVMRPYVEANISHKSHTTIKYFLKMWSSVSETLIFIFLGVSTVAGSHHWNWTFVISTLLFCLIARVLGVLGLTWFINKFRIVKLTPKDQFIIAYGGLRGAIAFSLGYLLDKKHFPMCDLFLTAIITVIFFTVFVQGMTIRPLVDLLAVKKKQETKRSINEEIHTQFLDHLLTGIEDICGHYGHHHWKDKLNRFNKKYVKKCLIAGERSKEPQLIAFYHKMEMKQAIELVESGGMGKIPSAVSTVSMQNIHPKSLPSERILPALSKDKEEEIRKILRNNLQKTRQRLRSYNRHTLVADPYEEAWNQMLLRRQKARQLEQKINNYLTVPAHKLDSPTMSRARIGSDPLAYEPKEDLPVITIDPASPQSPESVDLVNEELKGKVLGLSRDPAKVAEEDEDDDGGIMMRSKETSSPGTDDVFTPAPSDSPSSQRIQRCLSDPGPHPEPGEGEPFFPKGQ

Columns and labels:
ApoE receptors (Apoer2) = assay: recycling of ApoE receptors in the presence of ApoE4 / ApoE3; assay type: cell-based; details: FIG. 1; E4 is ApoE4, R is reelin
NHE-1 = NHE-1 (Homo sapiens, UniProt P19634); details: cited from earlier work

Structure (SMILES) | ability to normalize recycling of ApoE receptors (ApoE receptors (Apoer2)) | NHE-1 selectivity (NHE-1)
CC(C)CN(C)c1nc(N)c(C(=O)N=C(N)N)nc1Cl [MIBA, 5-(N-methyl-N-isobutyl)-amiloride] | normalize recycling of ApoE receptors | –
CCN(c1nc(N)c(C(=O)N=C(N)N)nc1Cl)C(C)C [C1, 5-(N-Ethyl-N-isopropyl)amiloride] | normalize recycling of ApoE receptors | –
NC(N)=NC(=O)c1nc(Cl)c(N2CCCCCC2)nc1N [HMA, 5-(N,N-Hexamethylene)amiloride] | normalize recycling of ApoE receptors | –
CC(C)c1ccc(C(=O)NC(=N)N)cc1S(C)(=O)=O [cariporide, 4-isopropyl-3-methylsulphonyl-benzoyl-guanidine methane-sulphonate] | – | selective
